From PubChem BioAssay AID1948 (National Center for Advancing Translational Sciences (NCATS), 2009)
Hit rate of the full screen: of about 110,000 compounds, about 20 (0.02%) were called active. Not shown: some 2% with an inconclusive outcome. Only a part is listed here, and it is no random draw. Entries without a call were filed so in the source.

Experiment: qHTS Assay for Compounds that Induce Erasure of Genomic Imprints;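 also: 0% = negative control wells on the plate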
Conditions: mouse ES Peg3-LacZ reporter, beta-gal luminescence, 40 h; at 60.7 µM (top of the series; calls follow the shape of the full dose curve)
Description: qHTS Assay for Compounds that Induce Erasure of Genomic Imprints NIH Chemical Genomics Center [NCGC] NIH Molecular Libraries Screening Centers Network [MLSCN] Assay Submitter (PI): JEFFRIES, SEAN, NCGC, University of Cambridge NCGC Peg3 Imprinting Assay Overview Genomic imprinting is the epigenetic process whereby genes are expressed in a parent of origin fashion. […] Unlike some forms of epigenetic silencing that can be overcome by overexpression of transcription factors, genomic imprinting stably represses the expression of one allele despite potentially high levels of expression from the other allele. […] During mouse embryonic day 11.5 imprints are erased in PGCs so that sex specific imprints can be reestablished during gametogenesis. Embryonic germ (EG) cells can be derived from developing PGCs at embryonic day 11.5 and these cells often lack genomic imprints. […] The assay uses a luminescence based read out for LacZ activity and is a homogenous assay optimal for HTS.
NCGC Peg3 Imprinting Assay Protocol Summary ES cell lines were derived from blastocysts taken from Peg3LacZ-Neo x129 matings. […] A single luminescence read was taken at the end of the assay and the data was normalized by plate to internal negative controls. Maximum efficacy and AC50 values were calculated from dose-response data using the standard Hill equation. […] (4)Read luminescence on the ViewLux plate reader. […]
For `CCCCCCCCCc1ccc(O)cc1`, the activity change, positive = activation was 41.1%.
Work on `N#C/C(=C\c1cccc(O)c1)C(=O)O` yielded an activity change, positive = activation of 32.1%.
